According to the supplement of paper PMC10849652:
This is one part of the list.

Protein sequences, listed by entry. Tags and fused reporters are not part of them. Lines headed by an entry give the natural chain unless they say otherwise; changes in a name come on top.
UniProt O75153: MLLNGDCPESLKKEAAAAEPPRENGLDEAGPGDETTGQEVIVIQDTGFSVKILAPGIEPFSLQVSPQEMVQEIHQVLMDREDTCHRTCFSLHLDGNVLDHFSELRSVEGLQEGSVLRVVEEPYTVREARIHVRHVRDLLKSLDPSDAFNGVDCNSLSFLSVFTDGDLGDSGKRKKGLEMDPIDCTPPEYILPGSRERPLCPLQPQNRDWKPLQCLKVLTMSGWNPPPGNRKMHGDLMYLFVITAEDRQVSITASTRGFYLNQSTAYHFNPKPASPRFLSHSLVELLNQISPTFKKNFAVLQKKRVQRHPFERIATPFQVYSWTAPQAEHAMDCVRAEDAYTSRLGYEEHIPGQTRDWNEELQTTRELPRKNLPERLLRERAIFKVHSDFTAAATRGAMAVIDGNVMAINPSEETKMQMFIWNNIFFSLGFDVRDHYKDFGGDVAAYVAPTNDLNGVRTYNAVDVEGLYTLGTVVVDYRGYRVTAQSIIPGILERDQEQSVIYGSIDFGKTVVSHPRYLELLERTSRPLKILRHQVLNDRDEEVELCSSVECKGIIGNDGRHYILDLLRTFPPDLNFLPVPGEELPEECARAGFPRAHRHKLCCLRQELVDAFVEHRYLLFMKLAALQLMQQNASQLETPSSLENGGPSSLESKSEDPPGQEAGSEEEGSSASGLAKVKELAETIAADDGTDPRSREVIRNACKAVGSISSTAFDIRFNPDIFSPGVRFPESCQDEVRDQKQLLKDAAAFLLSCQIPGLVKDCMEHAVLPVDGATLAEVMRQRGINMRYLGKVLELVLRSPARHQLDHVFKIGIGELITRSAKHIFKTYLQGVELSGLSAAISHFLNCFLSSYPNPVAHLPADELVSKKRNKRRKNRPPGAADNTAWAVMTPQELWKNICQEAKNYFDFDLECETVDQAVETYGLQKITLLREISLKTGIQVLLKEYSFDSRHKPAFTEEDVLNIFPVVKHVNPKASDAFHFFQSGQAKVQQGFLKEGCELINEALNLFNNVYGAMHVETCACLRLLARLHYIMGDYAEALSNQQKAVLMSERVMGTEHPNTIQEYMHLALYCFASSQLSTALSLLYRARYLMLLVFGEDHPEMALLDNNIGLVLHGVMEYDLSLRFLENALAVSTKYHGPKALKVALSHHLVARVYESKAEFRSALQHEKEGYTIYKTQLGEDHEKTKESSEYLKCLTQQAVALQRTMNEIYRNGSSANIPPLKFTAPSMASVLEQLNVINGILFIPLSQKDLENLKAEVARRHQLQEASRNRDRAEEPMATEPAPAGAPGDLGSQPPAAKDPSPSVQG
UniProt Q8WUH1: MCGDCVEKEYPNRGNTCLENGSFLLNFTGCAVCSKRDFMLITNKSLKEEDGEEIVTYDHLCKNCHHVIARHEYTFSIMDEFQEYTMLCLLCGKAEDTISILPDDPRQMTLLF
UniProt Q14008: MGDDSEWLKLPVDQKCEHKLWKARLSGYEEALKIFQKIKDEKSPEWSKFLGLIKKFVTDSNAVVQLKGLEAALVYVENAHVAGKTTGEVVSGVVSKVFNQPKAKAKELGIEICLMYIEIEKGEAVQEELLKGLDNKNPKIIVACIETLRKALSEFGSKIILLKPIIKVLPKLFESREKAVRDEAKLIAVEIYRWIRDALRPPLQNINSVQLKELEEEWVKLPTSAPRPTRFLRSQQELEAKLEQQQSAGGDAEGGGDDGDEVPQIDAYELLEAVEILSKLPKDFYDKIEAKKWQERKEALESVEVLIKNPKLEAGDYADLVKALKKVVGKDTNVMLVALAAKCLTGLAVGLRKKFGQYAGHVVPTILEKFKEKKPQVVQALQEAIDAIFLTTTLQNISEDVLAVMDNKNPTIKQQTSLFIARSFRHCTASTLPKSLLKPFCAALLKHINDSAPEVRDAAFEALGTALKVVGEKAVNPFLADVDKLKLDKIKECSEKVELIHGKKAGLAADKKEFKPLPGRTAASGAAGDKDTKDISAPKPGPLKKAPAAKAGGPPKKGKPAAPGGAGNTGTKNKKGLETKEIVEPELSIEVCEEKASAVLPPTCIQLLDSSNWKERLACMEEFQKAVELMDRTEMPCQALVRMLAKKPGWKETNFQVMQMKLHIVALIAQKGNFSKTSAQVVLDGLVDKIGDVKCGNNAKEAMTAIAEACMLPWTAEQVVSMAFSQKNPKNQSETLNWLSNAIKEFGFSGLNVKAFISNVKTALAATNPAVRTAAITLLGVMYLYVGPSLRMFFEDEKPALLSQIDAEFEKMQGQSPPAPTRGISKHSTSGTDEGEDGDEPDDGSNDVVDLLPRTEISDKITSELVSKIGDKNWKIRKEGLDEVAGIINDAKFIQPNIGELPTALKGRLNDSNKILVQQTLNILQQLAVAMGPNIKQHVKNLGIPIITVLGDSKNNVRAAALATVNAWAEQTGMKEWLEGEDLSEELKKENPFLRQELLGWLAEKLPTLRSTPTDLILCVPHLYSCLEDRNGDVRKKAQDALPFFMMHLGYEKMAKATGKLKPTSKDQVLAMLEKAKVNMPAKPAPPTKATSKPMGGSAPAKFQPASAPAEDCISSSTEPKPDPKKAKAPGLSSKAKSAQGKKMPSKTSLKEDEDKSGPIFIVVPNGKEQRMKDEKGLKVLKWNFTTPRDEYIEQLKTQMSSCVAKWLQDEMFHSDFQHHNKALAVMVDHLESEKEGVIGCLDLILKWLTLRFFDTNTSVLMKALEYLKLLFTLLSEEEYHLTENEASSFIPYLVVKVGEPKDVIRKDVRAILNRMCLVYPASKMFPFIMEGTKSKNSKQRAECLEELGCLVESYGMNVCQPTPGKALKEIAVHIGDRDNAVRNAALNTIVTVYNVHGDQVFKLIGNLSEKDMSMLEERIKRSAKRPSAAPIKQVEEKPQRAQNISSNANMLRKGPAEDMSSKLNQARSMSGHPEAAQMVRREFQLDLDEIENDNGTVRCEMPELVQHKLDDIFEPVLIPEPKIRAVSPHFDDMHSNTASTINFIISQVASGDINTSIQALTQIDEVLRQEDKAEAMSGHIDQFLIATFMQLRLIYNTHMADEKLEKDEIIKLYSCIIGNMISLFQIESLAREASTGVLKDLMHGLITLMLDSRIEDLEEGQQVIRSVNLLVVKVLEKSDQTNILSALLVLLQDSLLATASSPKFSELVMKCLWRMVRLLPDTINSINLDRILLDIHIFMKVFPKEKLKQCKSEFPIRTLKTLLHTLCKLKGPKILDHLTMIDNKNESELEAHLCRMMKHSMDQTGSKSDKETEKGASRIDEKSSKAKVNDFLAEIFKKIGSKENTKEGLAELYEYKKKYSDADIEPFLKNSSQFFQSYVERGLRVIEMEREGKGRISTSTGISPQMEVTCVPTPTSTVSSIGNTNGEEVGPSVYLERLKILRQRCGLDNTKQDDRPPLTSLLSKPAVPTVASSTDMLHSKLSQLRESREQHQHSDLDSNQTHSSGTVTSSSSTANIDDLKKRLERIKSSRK
UniProt Q9Y696: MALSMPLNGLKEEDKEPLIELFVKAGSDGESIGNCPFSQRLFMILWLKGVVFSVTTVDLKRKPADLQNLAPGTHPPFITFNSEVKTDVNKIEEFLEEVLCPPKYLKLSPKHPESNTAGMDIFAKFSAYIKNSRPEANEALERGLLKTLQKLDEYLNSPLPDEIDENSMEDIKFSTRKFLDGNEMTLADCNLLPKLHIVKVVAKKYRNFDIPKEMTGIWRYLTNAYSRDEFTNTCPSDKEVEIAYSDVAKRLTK
UniProt O96017, whole entry, looked up: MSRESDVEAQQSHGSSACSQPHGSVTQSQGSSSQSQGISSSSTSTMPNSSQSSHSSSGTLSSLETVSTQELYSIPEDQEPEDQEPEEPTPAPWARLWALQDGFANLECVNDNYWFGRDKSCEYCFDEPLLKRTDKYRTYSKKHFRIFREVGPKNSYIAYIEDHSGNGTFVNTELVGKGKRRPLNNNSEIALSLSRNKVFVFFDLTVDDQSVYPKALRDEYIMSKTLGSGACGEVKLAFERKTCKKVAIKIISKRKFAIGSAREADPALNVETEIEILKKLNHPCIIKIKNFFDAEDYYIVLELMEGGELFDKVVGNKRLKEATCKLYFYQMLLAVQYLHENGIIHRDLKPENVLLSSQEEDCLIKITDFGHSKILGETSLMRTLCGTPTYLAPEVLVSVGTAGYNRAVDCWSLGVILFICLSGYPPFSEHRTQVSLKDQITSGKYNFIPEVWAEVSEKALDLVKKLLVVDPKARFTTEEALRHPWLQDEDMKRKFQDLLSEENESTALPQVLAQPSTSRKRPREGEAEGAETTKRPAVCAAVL
UniProt Q14011: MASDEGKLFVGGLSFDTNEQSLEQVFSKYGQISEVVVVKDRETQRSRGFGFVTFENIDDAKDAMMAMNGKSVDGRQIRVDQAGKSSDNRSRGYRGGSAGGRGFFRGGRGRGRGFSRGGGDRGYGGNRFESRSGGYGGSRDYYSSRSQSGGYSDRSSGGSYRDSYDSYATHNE
UniProt Q14677: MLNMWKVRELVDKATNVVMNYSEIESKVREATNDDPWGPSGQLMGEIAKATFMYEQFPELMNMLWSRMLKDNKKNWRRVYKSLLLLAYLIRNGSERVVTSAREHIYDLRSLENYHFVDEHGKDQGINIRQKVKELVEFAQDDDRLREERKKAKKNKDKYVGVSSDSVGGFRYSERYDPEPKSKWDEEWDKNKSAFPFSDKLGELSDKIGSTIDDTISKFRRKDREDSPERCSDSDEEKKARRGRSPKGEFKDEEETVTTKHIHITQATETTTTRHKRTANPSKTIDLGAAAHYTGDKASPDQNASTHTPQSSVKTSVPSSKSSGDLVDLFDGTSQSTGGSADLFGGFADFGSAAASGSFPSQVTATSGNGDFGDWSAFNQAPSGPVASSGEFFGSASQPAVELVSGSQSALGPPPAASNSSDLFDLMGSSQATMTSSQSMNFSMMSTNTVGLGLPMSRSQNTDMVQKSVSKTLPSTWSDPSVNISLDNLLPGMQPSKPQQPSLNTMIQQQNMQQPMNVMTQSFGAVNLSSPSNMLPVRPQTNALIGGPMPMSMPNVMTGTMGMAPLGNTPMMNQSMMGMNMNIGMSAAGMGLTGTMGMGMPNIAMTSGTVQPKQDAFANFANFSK
UniProt Q9NX63: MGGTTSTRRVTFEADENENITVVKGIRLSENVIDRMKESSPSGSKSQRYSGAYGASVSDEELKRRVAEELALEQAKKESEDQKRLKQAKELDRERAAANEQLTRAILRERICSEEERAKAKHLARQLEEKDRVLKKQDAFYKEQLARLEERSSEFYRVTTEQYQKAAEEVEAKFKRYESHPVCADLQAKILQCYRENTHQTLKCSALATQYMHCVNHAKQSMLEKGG
UniProt Q99828: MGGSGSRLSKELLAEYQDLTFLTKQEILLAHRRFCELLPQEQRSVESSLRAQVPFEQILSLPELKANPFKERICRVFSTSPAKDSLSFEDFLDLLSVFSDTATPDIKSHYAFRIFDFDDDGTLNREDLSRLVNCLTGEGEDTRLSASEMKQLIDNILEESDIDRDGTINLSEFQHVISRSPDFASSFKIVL
UniProt Q9Y3E7, whole entry, looked up: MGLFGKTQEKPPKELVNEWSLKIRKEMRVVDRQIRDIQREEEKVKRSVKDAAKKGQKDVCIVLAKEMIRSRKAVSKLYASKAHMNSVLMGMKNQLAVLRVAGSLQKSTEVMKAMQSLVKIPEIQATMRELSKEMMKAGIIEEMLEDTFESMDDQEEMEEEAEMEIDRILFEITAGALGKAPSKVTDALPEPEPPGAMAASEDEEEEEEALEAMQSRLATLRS
UniProt Q9UHD1: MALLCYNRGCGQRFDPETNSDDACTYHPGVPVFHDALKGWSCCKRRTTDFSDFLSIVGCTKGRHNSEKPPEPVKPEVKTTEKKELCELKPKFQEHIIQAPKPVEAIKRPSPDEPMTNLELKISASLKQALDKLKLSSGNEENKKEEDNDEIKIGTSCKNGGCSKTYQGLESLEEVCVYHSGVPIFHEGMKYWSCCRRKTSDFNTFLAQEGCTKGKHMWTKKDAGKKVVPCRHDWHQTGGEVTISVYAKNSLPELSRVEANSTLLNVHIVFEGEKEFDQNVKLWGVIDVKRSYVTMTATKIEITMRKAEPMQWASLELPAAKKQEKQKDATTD
UniProt P06732: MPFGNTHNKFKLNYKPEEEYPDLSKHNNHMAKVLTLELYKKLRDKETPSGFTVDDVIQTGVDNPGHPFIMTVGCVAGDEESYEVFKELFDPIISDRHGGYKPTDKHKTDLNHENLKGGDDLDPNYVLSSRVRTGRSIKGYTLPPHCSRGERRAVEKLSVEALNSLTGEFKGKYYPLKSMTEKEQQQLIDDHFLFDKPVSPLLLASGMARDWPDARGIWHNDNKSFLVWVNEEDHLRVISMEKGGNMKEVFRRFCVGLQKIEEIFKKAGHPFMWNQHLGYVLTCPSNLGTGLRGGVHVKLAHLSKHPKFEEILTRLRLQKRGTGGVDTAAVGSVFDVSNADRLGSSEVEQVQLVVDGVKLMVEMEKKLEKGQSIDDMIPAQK

How the values were obtained:
Test in all cases: log2 fold change, soluble protein after heating vs DMSO (PISA); higher = thermal stabilisation; K562 lysate, 10 uM; active = over 0.2 and 3.5 SD of the protein, either way, in both replicates (recomputed)
vemurafenib = compound: CCCS(=O)(=O)Nc1ccc(F)c(C(=O)c2c[nH]c3ncc(-c4ccc(Cl)cc4)cc23)c1F [vemurafenib]
How it was run: (§1)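 A 30 min treatment with 10 μM compound was applied to crude K562 extract at 1 mg/mL protein in PBS pH 7.4 with 1 mM MgCl2. Heating for 3 min spanned 48°C-58°C, after which aliquots were pooled, adjusted to 0.5% NP-40 at 4°C and spun at 21,000xg for 90 min. TMTpro 16plex LC-MS/MS of the supernatant, with channel sums equalised, gave values recorded as log-two fold change in thermal stability against solvent controls, from duplicates.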

[1] = compound: CCCS(=O)(=O)Nc1ccc(F)c(C(=O)c2c[nH]c3ncc(Cl)cc23)c1F
How it was run: as §1

barasertib = compound: CCN(CCCOc1ccc2c(Nc3cc(CC(=O)Nc4cccc(F)c4)[nH]n3)ncnc2c1)CCOP(=O)(O)O [barasertib]
How it was run: as §1

[2] = compound: CC[C@@H]1C(=O)N(C)c2cnc(Nc3ccc(C(=O)NC4CCN(C)CC4)cc3OC)nc2N1C1CCCC1
How it was run: as §1

volasertib = compound: CC[C@@H]1C(=O)N(C)c2cnc(Nc3ccc(C(=O)N[C@H]4CC[C@H](N5CCN(CC6CC6)CC5)CC4)cc3OC)nc2N1C(C)C [volasertib]
How it was run: as §1

[3] = compound: CCn1c(C(=O)N(C2CC2)C2CC2)cc2c3c(ncn3C)c(Nc3cc(C)n(C)n3)nc21
How it was run: as §1

[4] = compound: CCn1cc(-c2ccnc3[nH]c(-c4cccc(CN(C)C)c4)cc23)c(-c2ccc(NC(=O)N(C)C)cc2)n1
How it was run: as §1

[5] = compound: CN1CCC(CNc2ccc3ncc(-c4cccc(OC(F)(F)F)c4)n3n2)CC1
How it was run: as §1

saracatinib = compound: CN1CCN(CCOc2cc(OC3CCOCC3)c3c(Nc4c(Cl)ccc5c4OCO5)ncnc3c2)CC1 [saracatinib]
How it was run: as §1

sotrastaurin = compound: CN1CCN(c2nc(C3=C(c4c[nH]c5ccccc45)C(=O)NC3=O)c3ccccc3n2)CC1 [sotrastaurin]
How it was run: as §1

alvocidib = compound: CN1CC[C@H](c2c(O)cc(O)c3c(=O)cc(-c4ccccc4Cl)oc23)[C@H](O)C1 [alvocidib]
How it was run: as §1

Tubastatin A = compound: CN1CCc2c(c3ccccc3n2Cc2ccc(C(=O)NO)cc2)C1 [Tubastatin A]
How it was run: as §1

[6] = compound: CNC(=O)C1=CC=CC=C1NC2=NC(=NC=C2Cl)NC3=C(C=C(C=C3)N4CCOCC4)OC
How it was run: as §1

defactinib = compound: CNC(=O)c1ccc(Nc2ncc(C(F)(F)F)c(NCc3nccnc3N(C)S(C)(=O)=O)n2)cc1 [defactinib]
How it was run: as §1

[7] = compound: CNc1nc(-c2ccc3c(N)n[nH]c3c2)cc(N2C[C@@H](C(=O)NC3CCCCC3)CC[C@H]2C)n1
How it was run: as §1

encorafenib = compound: COC(=O)N[C@@H](C)CNc1nccc(-c2cn(C(C)C)nc2-c2cc(Cl)cc(NS(C)(=O)=O)c2F)n1 [encorafenib]
How it was run: as §1

[8] = compound: COC(=O)[C@H](CCSC)NC(=O)C1=C(C=C(C=C1)NC[C@H](CS)N)C2=CC=CC=C2
How it was run: as §1

alisertib = compound: COc1cc(Nc2ncc3c(n2)-c2ccc(Cl)cc2C(c2c(F)cccc2OC)=NC3)ccc1C(=O)O [alisertib]
How it was run: as §1

[9] = compound: COc1cc2nc(-c3cc(F)ccc3O)nc(N[C@@H]3CNC[C@H]3C(C)(C)O)c2cc1OC
How it was run: as §1

gefitinib = compound: COc1cc2ncnc(Nc3ccc(F)c(Cl)c3)c2cc1OCCCN1CCOCC1 [gefitinib]
How it was run: as §1

Row | Target | log2 fold change (vemurafenib) | log2 fold change [1] | log2 fold change (barasertib) | log2 fold change [2] | log2 fold change (volasertib) | log2 fold change [3] | log2 fold change [4] | log2 fold change [5] | log2 fold change (saracatinib) | log2 fold change (sotrastaurin) | log2 fold change (alvocidib) | log2 fold change (Tubastatin A) | log2 fold change [6] | log2 fold change (defactinib) | log2 fold change [7] | log2 fold change (encorafenib) | log2 fold change [8] | log2 fold change (alisertib) | log2 fold change [9] | log2 fold change (gefitinib)
1 | CLUH (UniProt O75153) | inactive: -0.03 | inactive: 0.014 | inactive: 0.024 | inactive: 0.012 | inactive: -0.02 | inactive: -0.009 | inactive: -0.024 | inactive: 0.117 | inactive: 0.011 | inactive: 0.01 | inactive: -0.022 | inactive: -0.076 | inactive: -0.076 | inactive: 0.002 | inactive: -0.029 | inactive: 0.007 | inactive: 0.058 | inactive: -0.014 | inactive: -0.014 | inactive: 0.017
2 | CIC (UniProt I3L2J0) | inactive: -0.077 | inactive: -0.043 | active: 0.4 | inactive: -0.057 | inactive: -0.032 | inactive: 0.001 | inactive: -0.05 | inactive: -0.004 | inactive: 0.021 | inactive: -0.016 | inactive: 0.005 | inactive: -0.03 | inactive: 0.072 | inactive: 0.041 | inactive: 0.035 | inactive: -0.002 | inactive: 0.052 | inactive: -0.027 | inactive: 0.158 | inactive: -0.098
3 | CHURC1 isoform 2 (UniProt Q8WUH1) | inactive: 0.019 | inactive: -0.166 | inactive: 0.194 | inactive: 0.038 | inactive: 0.129 | inactive: 0.018 | inactive: -0.108 | inactive: 0.024 | inactive: -0.071 | inactive: -0.013 | inactive: 0.002 | inactive: 0.002 | inactive: 0 | inactive: 0.051 | inactive: 0.024 | inactive: -0.068 | inactive: -0.005 | inactive: 0.013 | inactive: -0.145 | inactive: -0.025
4 | CLUH, A0A494C0R8 | inactive: -0.11 | inactive: 0.027 | inactive: -0.092 | inactive: 0.097 | inactive: -0.005 | inactive: 0 | active: 0.59 | inactive: -0.047 | inactive: 0.03 | inactive: 0.051 | inactive: 0.076 | inactive: -0.08 | inactive: -0.015 | inactive: -0.184 | inactive: -0.049 | inactive: -0.089 | inactive: 0.054 | inactive: -0.05 | inactive: 0.005 | inactive: 0.138
5 | CKAP5 (UniProt Q14008) | inactive: -0.023 | inactive: -0.013 | inactive: 0.003 | inactive: -0.002 | inactive: -0.021 | inactive: 0.022 | inactive: -0.016 | inactive: -0.033 | inactive: 0.005 | inactive: 0.025 | inactive: 0.008 | inactive: -0.076 | inactive: 0.019 | inactive: 0.008 | inactive: 0.003 | inactive: 0.013 | inactive: 0.074 | inactive: 0.012 | inactive: 0.007 | inactive: -0.005
6 | CLIC4 (UniProt Q9Y696) | inactive: -0.031 | inactive: -0.007 | inactive: -0.019 | inactive: -0.026 | inactive: 0.027 | inactive: -0.048 | inactive: -0.072 | inactive: 0.099 | inactive: -0.023 | inactive: 0.006 | inactive: -0.043 | inactive: 0.035 | inactive: 0.02 | inactive: -0.005 | inactive: 0.011 | inactive: -0.018 | inactive: 0 | inactive: -0.016 | inactive: 0.014 | inactive: -0.014
7 | CHEK2 (UniProt O96017) | inactive: -0.059 | inactive: 0.042 | inactive: 0.087 | inactive: -0.06 | inactive: -0.044 | inactive: 0.051 | inactive: 0.08 | inactive: -0.057 | inactive: -0.036 | inactive: 0 | inactive: 0.093 | inactive: -0.007 | active: 0.207 | inactive: 0.022 | inactive: -0.085 | inactive: -0.022 | inactive: 0.092 | inactive: 0 | inactive: -0.052 | inactive: 0.09
8 | CLCN3 isoform 2 (UniProt P51790) | inactive: -0.015 | inactive: 0.052 | inactive: -0.004 | inactive: 0.003 | inactive: -0.022 | inactive: -0.024 | inactive: -0.039 | inactive: 0.013 | inactive: -0.018 | inactive: 0.054 | inactive: -0.02 | inactive: 0.02 | inactive: 0.024 | inactive: -0.015 | inactive: 0.033 | inactive: 0.041 | inactive: 0.022 | inactive: -0.007 | inactive: -0.002 | inactive: 0.005
9 | CIRBP (UniProt Q14011) | inactive: -0.022 | inactive: 0.001 | inactive: -0.017 | inactive: 0.007 | inactive: 0.028 | inactive: -0.003 | inactive: -0.008 | inactive: -0.003 | inactive: -0.032 | inactive: 0 | inactive: 0.003 | inactive: 0.023 | inactive: -0.02 | inactive: 0.014 | inactive: 0.03 | inactive: 0.019 | inactive: -0.068 | inactive: -0.008 | inactive: 0 | inactive: -0.019
10 | CLINT1 isoform 3 (UniProt Q14677) | inactive: 0.027 | inactive: -0.001 | inactive: 0.019 | inactive: 0.106 | inactive: 0.005 | inactive: 0.028 | inactive: 0.005 | inactive: -0.028 | inactive: 0.024 | inactive: -0.007 | inactive: -0.003 | inactive: 0.053 | inactive: 0.051 | inactive: 0.019 | inactive: 0.115 | inactive: 0.128 | inactive: -0.012 | inactive: 0.035 | inactive: 0.015 | inactive: -0.024
11 | CHCHD3 (UniProt Q9NX63) | inactive: 0.038 | inactive: 0.006 | inactive: -0.038 | inactive: -0.012 | inactive: 0.038 | inactive: -0.001 | inactive: -0.006 | inactive: -0.066 | inactive: 0.011 | inactive: -0.025 | inactive: 0.027 | inactive: 0.029 | inactive: -0.033 | inactive: -0.045 | inactive: -0.081 | inactive: -0.007 | inactive: -0.104 | inactive: -0.003 | inactive: -0.022 | inactive: 0.009
12 | CIB1 (UniProt Q99828) | inactive: 0.096 | inactive: 0.027 | inactive: 0.155 | inactive: -0.013 | inactive: 0.008 | inactive: -0.047 | inactive: -0.028 | inactive: -0.028 | inactive: 0.017 | inactive: -0.077 | inactive: -0.003 | inactive: -0.037 | inactive: 0.01 | inactive: 0.038 | inactive: 0.041 | inactive: -0.001 | inactive: -0.215 | inactive: -0.031 | inactive: 0.072 | inactive: -0.124
13 | CHEK1 (UniProt O14757) | inactive: -0.02 | inactive: 0.006 | inactive: 0.015 | inactive: -0.031 | inactive: -0.012 | inactive: -0.012 | inactive: -0.008 | inactive: -0.045 | inactive: -0.004 | inactive: -0.014 | inactive: 0.01 | inactive: 0.072 | inactive: -0.063 | inactive: -0.021 | inactive: -0.002 | inactive: 0.002 | inactive: -0.008 | inactive: 0.008 | inactive: -0.178 | inactive: 0.013
14 | CHMP3 (UniProt Q9Y3E7) | inactive: -0.008 | inactive: 0.03 | inactive: -0.036 | inactive: 0.014 | inactive: 0.011 | inactive: -0.038 | inactive: 0.003 | inactive: -0.013 | inactive: 0.015 | inactive: -0.041 | inactive: -0.009 | inactive: 0.055 | inactive: 0.024 | inactive: -0.004 | inactive: 0.078 | inactive: -0.012 | inactive: -0.008 | inactive: 0.027 | inactive: 0.002 | inactive: -0.021
15 | CHORDC1 (UniProt Q9UHD1) | inactive: 0.017 | inactive: -0.003 | inactive: -0.029 | inactive: 0.009 | inactive: 0.02 | inactive: 0.002 | active: 0.288 | inactive: -0.003 | inactive: -0.006 | inactive: -0.036 | inactive: 0.033 | inactive: 0.004 | inactive: 0.007 | inactive: 0 | inactive: -0.002 | inactive: -0.029 | inactive: -0.018 | inactive: -0.012 | inactive: -0.008 | inactive: -0.026
16 | CKM (UniProt P06732) | inactive: 0.072 | inactive: -0.018 | inactive: -0.018 | inactive: 0.086 | inactive: -0.084 | inactive: -0.039 | active: -0.574 | inactive: 0.17 | inactive: -0.014 | inactive: 0.086 | inactive: -0.126 | inactive: -0.091 | inactive: -0.049 | inactive: -0.033 | inactive: -0.037 | inactive: 0.016 | inactive: 0.026 | inactive: -0.015 | inactive: 0.031 | inactive: -0.065

Single records, as listed above. Values in the order: log2 fold change (vemurafenib)	log2 fold change [1]	log2 fold change (barasertib)	log2 fold change [2]	log2 fold change (volasertib)	log2 fold change [3]	log2 fold change [4]	log2 fold change [5]	log2 fold change (saracatinib)	log2 fold change (sotrastaurin)	log2 fold change (alvocidib)	log2 fold change (Tubastatin A)	log2 fold change [6]	log2 fold change (defactinib)	log2 fold change [7]	log2 fold change (encorafenib)	log2 fold change [8]	log2 fold change (alisertib)	log2 fold change [9]	log2 fold change (gefitinib)
CHMP3 (UniProt Q9Y3E7) is entered as inactive: -0.008	inactive: 0.03	inactive: -0.036	inactive: 0.014	inactive: 0.011	inactive: -0.038	inactive: 0.003	inactive: -0.013	inactive: 0.015	inactive: -0.041	inactive: -0.009	inactive: 0.055	inactive: 0.024	inactive: -0.004	inactive: 0.078	inactive: -0.012	inactive: -0.008	inactive: 0.027	inactive: 0.002	inactive: -0.021
CHEK1 (UniProt O14757) is entered as inactive: -0.02	inactive: 0.006	inactive: 0.015	inactive: -0.031	inactive: -0.012	inactive: -0.012	inactive: -0.008	inactive: -0.045	inactive: -0.004	inactive: -0.014	inactive: 0.01	inactive: 0.072	inactive: -0.063	inactive: -0.021	inactive: -0.002	inactive: 0.002	inactive: -0.008	inactive: 0.008	inactive: -0.178	inactive: 0.013
